The target in the assay is Keap1 (rat (endogenous in adult rat cardiomyocytes)) (UniProt P57790). Kind of assay: co-IP; adult rat cardiomyocytes, normal or with Notch1 over-expression (interaction impaired) or RBP-Jκ over-expression (interaction not affected); bait and antibodies not told.

Protein sequences, listed by entry. Tags and fused reporters are not part of them.
UniProt P57790: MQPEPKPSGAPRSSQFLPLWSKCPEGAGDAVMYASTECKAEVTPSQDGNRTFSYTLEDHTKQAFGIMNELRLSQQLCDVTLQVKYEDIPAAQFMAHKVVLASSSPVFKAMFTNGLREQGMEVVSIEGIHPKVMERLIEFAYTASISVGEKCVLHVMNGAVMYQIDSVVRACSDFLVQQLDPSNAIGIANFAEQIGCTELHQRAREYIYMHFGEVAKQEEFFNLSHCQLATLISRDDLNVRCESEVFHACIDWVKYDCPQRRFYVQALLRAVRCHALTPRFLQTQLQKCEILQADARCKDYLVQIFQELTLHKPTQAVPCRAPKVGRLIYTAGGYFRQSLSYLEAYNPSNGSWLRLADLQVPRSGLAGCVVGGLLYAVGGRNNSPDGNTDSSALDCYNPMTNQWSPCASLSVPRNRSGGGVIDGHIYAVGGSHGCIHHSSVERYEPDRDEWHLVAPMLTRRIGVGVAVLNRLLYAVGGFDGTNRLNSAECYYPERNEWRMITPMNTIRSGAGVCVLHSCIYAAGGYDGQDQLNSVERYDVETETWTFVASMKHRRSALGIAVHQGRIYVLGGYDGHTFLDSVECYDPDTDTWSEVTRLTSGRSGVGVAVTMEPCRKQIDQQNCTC
UniProt B5DF89: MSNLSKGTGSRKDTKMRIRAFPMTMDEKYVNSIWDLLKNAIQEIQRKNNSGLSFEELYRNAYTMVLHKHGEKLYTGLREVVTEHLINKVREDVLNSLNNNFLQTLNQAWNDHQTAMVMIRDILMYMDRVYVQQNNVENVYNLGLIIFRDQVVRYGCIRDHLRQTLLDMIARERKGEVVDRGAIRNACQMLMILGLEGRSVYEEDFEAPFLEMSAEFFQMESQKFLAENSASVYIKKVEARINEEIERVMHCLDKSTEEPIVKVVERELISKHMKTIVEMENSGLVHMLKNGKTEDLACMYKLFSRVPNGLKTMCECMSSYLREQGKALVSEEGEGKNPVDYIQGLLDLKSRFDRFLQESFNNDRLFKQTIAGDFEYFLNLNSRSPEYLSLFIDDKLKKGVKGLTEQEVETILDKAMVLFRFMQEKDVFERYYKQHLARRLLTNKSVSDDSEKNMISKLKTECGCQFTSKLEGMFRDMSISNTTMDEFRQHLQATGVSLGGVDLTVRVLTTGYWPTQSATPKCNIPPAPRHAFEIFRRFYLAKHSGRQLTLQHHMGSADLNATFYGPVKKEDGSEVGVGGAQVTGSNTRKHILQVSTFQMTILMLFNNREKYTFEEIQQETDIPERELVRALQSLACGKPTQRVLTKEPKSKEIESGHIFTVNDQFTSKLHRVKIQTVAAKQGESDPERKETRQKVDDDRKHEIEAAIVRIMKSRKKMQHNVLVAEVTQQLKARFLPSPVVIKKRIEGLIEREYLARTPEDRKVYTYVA

Data on one substance can be found in paper PMC8898363.

Results are given in words; binding and its absence hold for the method and conditions named. Binding seen in cells or lysates may run through a third protein. Some entries that bind do so weakly or less than the wild type.

For Cullin3 (from UniProt B5DF89 1-768), the binding result is reported as “binds”.
